Assay type in all cases: cell-based
The test system of one data set is HCT-116. Nature of the data set: MTT anti-proliferative assay. The settings on record: IC50 (WI-38)/IC50 (HCT-116). The protocol: (§1) The antiproliferation and cytotoxicity were assessed using 3-(4,5-dimethylthiazol-2-yl)−2,5-diphenyltetrazolium bromide (MTT, Serva) colorimetric assay. All tested cancer cell lines were seeded at a density of 20,000 cells per well in 96-well plates and allowed to adhere overnight. The attached cells were treated with five serial dilutions (100, 50, 5, 0.5, and 0.1 μM) in triplicate. These concentrations were prepared by diluting the stock solutions with serum-free culture media. The negative control cells were those treated with 0.1% DMSO solvent alone. The treated cells were handled in reduced light and maintained under standard culture growth conditions for 24 h. After the incubation period, MTT powder was prepared as a stock solution (5 mg/mL), and 20 μL of the MTT working reagent (final concentration 0.5 mg/mL) was added to each well. This was followed by incubation with MTT reagent for 4 h in a humidified atmosphere (37 °C, 5% CO2) with subsequent addition of 150 μL of DMSO solubilizing solvent and incubation for 20 min. The absorbance of solubilized violet formazan crystals was measured at 570 nm with a Biotek 800 TS microplate reader. IC50 was calculated as the concentration of retinoid that produced 50% cell growth inhibition. For cytotoxicity assessment, WI-38 normal human fibroblast cells were used for the calculation of SI, which is the ratio of IC50 retinoid (WI-38)/IC50 retinoid (cancer cell line).

For a further data set, the system named is MDA-MB231. Nature of the data set: MTT anti-proliferative assay. The settings on record: IC50 (WI-38)/IC50 (MDA-MB231). The protocol: as §1
Another data set deals with PC-3. Briefly: MTT anti-proliferative assay. The settings on record: IC50 (WI-38)/IC50 (PC-3). The protocol: as §1
(Tetrazolium assays rely on reduction of a dye to a coloured formazan, in cell work by metabolically active cells.)

For the next data set, the system named is Caco-2. Nature of the data set: MTT anti-proliferative assay. The following applies: IC50 (WI-38)/IC50 (Caco-2). The method, then:
as §1

The next data set concerns HepG-2. Briefly: MTT anti-proliferative assay. The settings on record: IC50 (WI-38)/IC50 (HepG-2). The protocol: as §1
The test system of another data set is MCF-7. Briefly: MTT anti-proliferative assay. The following applies: IC50 (WI-38)/IC50 (MCF-7). The method, then: as §1
For data set [1], the system named is different cancer cell lines. Briefly: MTT anti-proliferative assay, whole panel statements. The settings on record: IC50 (WI-38)/IC50 (cancer cell line). The method, then: as §1, with “For cytotoxicity assessment, WI-38 normal human fibroblast cells were used for the calculation of SI, which is the ratio of IC50 retinoid (WI-38)/IC50 retinoid (cancer cell line).” left out

On to `CC1=C(/C=C/C(C)=C/C=C/C(C)=C/C(=O)O)C(C)(C)CCC1` [ATRA, all-trans-retinoic acid, reference compound], for which the “SI (Safety Index)” value came to 1.21 with HCT-116; 4.52 in the data set on MDA-MB231; 21.17 in the data set with PC-3; 4.11 in the data set with Caco-2; 2.92 with HepG-2; 9.51 in the data set on MCF-7.

For `COC(=O)c1ccc2cc(-c3ccc4c(c3)CCCN4)ccc2c1` [Compound 3a, Methyl 6-(1,2,3,4-tetrahydroquinolin-6-yl)−2-naphthoate], the “SI (Safety Index)” value was 3.86 in the data set with HCT-116; 16.81 in the data set with MDA-MB231; 2.08 in the data set on PC-3; 4.09 in the data set on Caco-2; 6.16 in the data set on HepG-2; 2.84 in the data set with MCF-7. The “SI across cancer cell lines” value in data set [1] is above 1.

On to `COC(=O)c1ccc2cc(-c3ccc4c(c3)CCCO4)ccc2c1` [Compound 3b, Methyl 6-(chroman-6-yl)−2-naphthoate], for which the “SI (Safety Index)” value in the data set with HCT-116 is on record as 0.55; in the data set with MDA-MB231, 14.00; with PC-3 it was 6.36; with Caco-2, 2.03; with HepG-2, 2.44; in the data set with MCF-7 it was 2.39. Also, the “SI across cancer cell lines” value in data set [1] is given as above 1.

Take `O=C(O)c1ccc2cc(-c3ccc4c(c3)CCCN4)ccc2c1` [Compound 4a, 6-(1,2,3,4-tetrahydroquinolin-6-yl)−2-naphthoic acid]: the “SI (Safety Index)” value in the data set on HCT-116 came to 0.33; in the data set with MDA-MB231, 18.06; in the data set with PC-3 it was 15.75; with Caco-2 it was 0.93; with HepG-2, 0.82; with MCF-7, 0.67.

In the case of `O=C(O)c1ccc2cc(-c3ccc4c(c3)CCCO4)ccc2c1` [Compound 4b, 6-(chroman-6-yl)−2-naphthoic acid], the “SI (Safety Index)” value in the data set on HCT-116 was determined as 0.91; in the data set with MDA-MB231 it was 14.71; in the data set on PC-3, 12.35; in the data set with Caco-2, 2.24; in the data set on HepG-2, 0.56; with MCF-7, 0.63.

For the origin of these results see PMC12718261, “New Fluorescent Synthetic Retinoids as Potential RAR Agonists with Anticancer, Molecular Docking and ADME Assessments” (Journal of Fluorescence, 2025).
